# This is one part of the list.
# B1: CRT-1 (Homo sapiens), P27797 (protein)
# chain: MLLSVPLLLGLLGLAVAEPAVYFKEQFLDGDGWTSRWIESKHKSDFGKFVLSSGKFYGDEEKDKGLQTSQDARFYALSASFEPFSNKGQTLVVQFTVKHEQNIDCGGGYVKLFPNSLDQTDMHGDSEYNIMFGPDICGPGTKKVHVIFNYKGKNVLINKDIRCKDDEFTHLYTLIVRPDNTYEVKIDNSQVESGSLEDDWDFLPPKKIKDPDASKPEDWDERAKIDDPTDSKPEDWDKPEHIPDPDAKKPEDWDEEMDGEWEPPVIQNPEYKGEWKPRQIDNPDYKGTWIHPEIDNPEYSPDPSIYAYDNFGVLGLDLWQVKSGTIFDNFLITNDEAYAEEFGNETWGVTKAAEKQMKDKQDEEQRLKEEEEDKKRKEEEEAEDKEDDEDKDEDEEDEEDKEEDEEEDVPGQAKDEL
# Experiments:
# Assay in all cases: glycan array binding signal (z-score within array); higher = stronger binding
# Conditions in all cases: glycan notation: IUPAC condensed, linker removed
# Neu5Ac(a2-6)GalNAc = biological target: Neu5Ac(a2-6)GalNAc
# In short: (§1)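 Glycan array data came from 3228 arrays in the Consortium for Functional Glycomics database, and only arrays with an available protein sequence were kept. Glycan names were put into IUPAC-condensed notation, and columns mapping to the same glycan were averaged. The binding signal is a within-array Z-score, averaged across arrays of one protein sequence run at different concentrations or buffers and across linkers. A negative Z-score can be read as non-binding.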
# [1] = biological target: Neu5Ac(a2-6)GalNAc(b1-4)GlcNAc
# In short: as §1
# [2] = biological target: Neu5Ac(a2-6)GalNAc(b1-4)GlcNAc6S
# In short: as §1
# [3] = biological target: Neu5Ac(a2-6)GlcNAc(b1-4)GlcNAc
# In short: as §1
# [4] = biological target: Neu5Ac(a2-6)GlcNAc(b1-4)GlcNAc(b1-4)GlcNAc
# In short: as §1
# Neu5Ac(a2-8)Neu5Ac = biological target: Neu5Ac(a2-8)Neu5Ac
# In short: as §1
# [5] = biological target: Neu5Ac(a2-8)Neu5Ac(a2-3)Gal(b1-3)GalNAc(b1-4)[Neu5Ac(a2-3)]Gal(b1-4)Glc
# In short: as §1
# [6] = biological target: Neu5Ac(a2-8)Neu5Ac(a2-3)Gal(b1-3)GalNAc(b1-4)[Neu5Ac(a2-8)Neu5Ac(a2-3)]Gal(b1-4)Glc
# In short: as §1
# [7] = biological target: Neu5Ac(a2-8)Neu5Ac(a2-3)Gal(b1-4)Glc
# In short: as §1
# [8] = biological target: Neu5Ac(a2-8)Neu5Ac(a2-3)Gal(b1-4)GlcNAc
# In short: as §1
# [9] = biological target: Neu5Ac(a2-8)Neu5Ac(a2-3)[Gal(b1-3)GalNAc(b1-4)]Gal(b1-4)Glc
# In short: as §1
# [10] = biological target: Neu5Ac(a2-8)Neu5Ac(a2-3)[GalNAc(b1-4)]Gal(b1-4)Glc
# In short: as §1
# [11] = biological target: Neu5Ac(a2-8)Neu5Ac(a2-8)Neu5Ac
# In short: as §1
# [12] = biological target: Neu5Ac(a2-8)Neu5Ac(a2-8)Neu5Ac(a2-3)Gal(b1-4)Glc
# In short: as §1
# [13] = biological target: Neu5Ac(a2-8)Neu5Ac(a2-8)Neu5Ac(a2-3)[Gal(b1-3)GalNAc(b1-4)]Gal(b1-4)Glc
# In short: as §1
# [14] = biological target: Neu5Ac(a2-8)Neu5Ac(a2-8)Neu5Ac(a2-3)[GalNAc(b1-4)]Gal(b1-4)Glc
# In short: as §1
# [15] = biological target: Neu5Ac(a2-8)Neu5Ac(a2-8)Neu5Ac(a2-8)Neu5Ac(a2-3)[GalNAc(b1-4)]Gal(b1-4)Glc
# In short: as §1
# [16] = biological target: Neu5Ac(a2-8)Neu5Gc(a2-3)Gal(b1-4)GlcNAc
# In short: as §1
# Neu5Ac(b1-6)GalNAc = biological target: Neu5Ac(b1-6)GalNAc
# In short: as §1
# [17] = biological target: Neu5Ac(b2-6)Gal(b1-4)GlcNAc
# In short: as §1
# Neu5Ac(b2-6)GalNAc = biological target: Neu5Ac(b2-6)GalNAc
# In short: as §1
# [18] = biological target: Neu5Ac9Ac(a2-3)Gal(b1-3)GlcNAc
# In short: as §1
# [19] = biological target: Neu5Ac9Ac(a2-3)Gal(b1-4)GlcNAc
# In short: as §1
# [20] = biological target: Neu5Ac9Ac(a2-6)Gal(b1-4)GlcNAc
# In short: as §1
# [21] = biological target: Neu5Gc(a2-3)Gal(b1-3)GlcNAc
# In short: as §1
# [22] = biological target: Neu5Gc(a2-3)Gal(b1-3)[Fuc(a1-4)]GlcNAc
# In short: as §1
# Neu5Gc(a2-3)Gal(b1-4)Glc = biological target: Neu5Gc(a2-3)Gal(b1-4)Glc
# In short: as §1
# [23] = biological target: Neu5Gc(a2-3)Gal(b1-4)GlcNAc
# In short: as §1
# [24] = biological target: Neu5Gc(a2-3)Gal(b1-4)GlcNAc(b1-3)Gal(b1-4)GlcNAc(b1-2)Man(a1-3)[Neu5Gc(a2-3)Gal(b1-4)GlcNAc(b1-3)Gal(b1-4)GlcNAc(b1-2)Man(a1-6)]Man(b1-4)GlcNAc(b1-4)GlcNAc
# In short: as §1
# [25] = biological target: Neu5Gc(a2-3)Gal(b1-4)[Fuc(a1-3)]GlcNAc
# In short: as §1
# [26] = biological target: Neu5Gc(a2-6)Gal(b1-4)GlcNAc
# In short: as §1
# Neu5Gc(a2-6)GalNAc = biological target: Neu5Gc(a2-6)GalNAc
# In short: as §1
# [27] = biological target: Neu5Gc(a2-8)Neu5Ac(a2-3)Gal(b1-4)GlcNAc
# In short: as §1
# [28] = biological target: Neu5Gc(a2-8)Neu5Gc(a2-3)Gal(b1-4)GlcNAc
# In short: as §1
# [29] = biological target: Neu5Gc(a2-8)Neu5Gc(a2-3)Gal(b1-4)GlcNAc(b1-3)Gal(b1-4)GlcNAc
# In short: as §1
# [30] = biological target: Neu5Gc(a2-8)Neu5Gc(a2-6)Gal(b1-4)GlcNAc
# In short: as §1
# [31] = biological target: Neu5Gc(b2-6)Gal(b1-4)GlcNAc
# In short: as §1
binder,measurement,setting,value
B1,glycan array binding signal (z-score),Neu5Ac(a2-6)GalNAc,0.869
same,glycan array binding signal (z-score),[1],-0.93
same,glycan array binding signal (z-score),[2],0.315
same,glycan array binding signal (z-score),[3],0.504
same,glycan array binding signal (z-score),[4],0.038
same,glycan array binding signal (z-score),Neu5Ac(a2-8)Neu5Ac,-0.23
same,glycan array binding signal (z-score),[5],0.382
same,glycan array binding signal (z-score),[6],0.12
same,glycan array binding signal (z-score),[7],-0.31
same,glycan array binding signal (z-score),[8],-0.488
same,glycan array binding signal (z-score),[9],-0.631
same,glycan array binding signal (z-score),[10],0.059
same,glycan array binding signal (z-score),[11],-0.213
same,glycan array binding signal (z-score),[12],0.443
same,glycan array binding signal (z-score),[13],0.909
same,glycan array binding signal (z-score),[14],-0.406
same,glycan array binding signal (z-score),[15],0.128
same,glycan array binding signal (z-score),[16],-0.349
same,glycan array binding signal (z-score),Neu5Ac(b1-6)GalNAc,-0.091
same,glycan array binding signal (z-score),[17],-0.481
same,glycan array binding signal (z-score),Neu5Ac(b2-6)GalNAc,0.098
same,glycan array binding signal (z-score),[18],-0.124
same,glycan array binding signal (z-score),[19],0.312
same,glycan array binding signal (z-score),[20],0.185
same,glycan array binding signal (z-score),[21],-0.645
same,glycan array binding signal (z-score),[22],-0.207
same,glycan array binding signal (z-score),Neu5Gc(a2-3)Gal(b1-4)Glc,-0.151
same,glycan array binding signal (z-score),[23],-0.316
same,glycan array binding signal (z-score),[24],-0.414
same,glycan array binding signal (z-score),[25],-0.01
same,glycan array binding signal (z-score),[26],-0.116
same,glycan array binding signal (z-score),Neu5Gc(a2-6)GalNAc,0.197
same,glycan array binding signal (z-score),[27],0.176
same,glycan array binding signal (z-score),[28],-0.33
same,glycan array binding signal (z-score),[29],-0.189
same,glycan array binding signal (z-score),[30],-0.147
same,glycan array binding signal (z-score),[31],0.165

# Quoted at random: two records from the list.
binder,measurement,setting,value
B1,glycan array binding signal (z-score),[22],-0.207
same,glycan array binding signal (z-score),[3],0.504

# Reference: the supplement of paper PMC8728848
